# Assay results published in the supplement of paper PMC8728848.
# This is one part of the list.
# B1: Epa20 (Candida glabrata) (protein)
# chain: MGSSHHHHHHSSGLVPRGSHMASSNIPNNYPLGCSNKYSGHLPGLKMELYSYNYVNPRHPDPQNPGKLDQLYDPNLLGTYECFDSSYKDINYPRVGYKSKTLIGRSDGVSGILNFNFVPPWGCMPQKGQLPPAYNFKSNITLSNFTMILFGYFKPKISGNHIFSLHGDDLIYLNFGAGNAFDCCRQESSADNFGNYQAFSLWGINWEKKTLTVYLDMNTYYPIRIFYNNRDYQAIFNFSFKTEFDSSPVIDFQDYFFFLRDIDGGCPGEV
# Experiments:
# Assay in all cases: glycan array binding signal (z-score within array); higher = stronger binding
# Details in all cases: glycan notation: IUPAC condensed, linker removed
# [1] = biological target: Neu5Ac(a2-6)GlcNAc(b1-4)GlcNAc(b1-4)GlcNAc
# In short: (§1)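 Columns mapping to the same glycan were averaged after glycan names were converted to IUPAC-condensed notation. The data come from 3228 arrays in the Consortium for Functional Glycomics database, limited to those with an available protein sequence. Binding is reported as a within-array Z-score averaged across arrays of one protein sequence and across linkers.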
# Neu5Ac(a2-8)Neu5Ac = biological target: Neu5Ac(a2-8)Neu5Ac
# In short: as §1
# [2] = biological target: Neu5Ac(a2-8)Neu5Ac(a2-3)Gal(b1-3)GalNAc(b1-4)[Neu5Ac(a2-3)]Gal(b1-4)Glc
# In short: as §1
# [3] = biological target: Neu5Ac(a2-8)Neu5Ac(a2-3)Gal(b1-3)GalNAc(b1-4)[Neu5Ac(a2-8)Neu5Ac(a2-3)]Gal(b1-4)Glc
# In short: as §1
# [4] = biological target: Neu5Ac(a2-8)Neu5Ac(a2-3)Gal(b1-4)Glc
# In short: as §1
# [5] = biological target: Neu5Ac(a2-8)Neu5Ac(a2-3)Gal(b1-4)GlcNAc
# In short: as §1
# [6] = biological target: Neu5Ac(a2-8)Neu5Ac(a2-3)[Gal(b1-3)GalNAc(b1-4)]Gal(b1-4)Glc
# In short: as §1
# [7] = biological target: Neu5Ac(a2-8)Neu5Ac(a2-3)[GalNAc(b1-4)]Gal(b1-4)Glc
# In short: as §1
# [8] = biological target: Neu5Ac(a2-8)Neu5Ac(a2-8)Neu5Ac
# In short: as §1
# [9] = biological target: Neu5Ac(a2-8)Neu5Ac(a2-8)Neu5Ac(a2-3)Gal(b1-4)Glc
# In short: as §1
# [10] = biological target: Neu5Ac(a2-8)Neu5Ac(a2-8)Neu5Ac(a2-3)[Gal(b1-3)GalNAc(b1-4)]Gal(b1-4)Glc
# In short: as §1
# [11] = biological target: Neu5Ac(a2-8)Neu5Ac(a2-8)Neu5Ac(a2-3)[GalNAc(b1-4)]Gal(b1-4)Glc
# In short: as §1
# [12] = biological target: Neu5Ac(a2-8)Neu5Ac(a2-8)Neu5Ac(a2-8)Neu5Ac(a2-3)[GalNAc(b1-4)]Gal(b1-4)Glc
# In short: as §1
# [13] = biological target: Neu5Ac(a2-8)Neu5Gc(a2-3)Gal(b1-4)GlcNAc
# In short: as §1
# [14] = biological target: Neu5Ac(b2-6)Gal(b1-4)GlcNAc
# In short: as §1
# Neu5Ac(b2-6)GalNAc = biological target: Neu5Ac(b2-6)GalNAc
# In short: as §1
# [15] = biological target: Neu5Ac9Ac(a2-3)Gal(b1-3)GlcNAc
# In short: as §1
# [16] = biological target: Neu5Ac9Ac(a2-3)Gal(b1-4)GlcNAc
# In short: as §1
# [17] = biological target: Neu5Ac9Ac(a2-6)Gal(b1-4)GlcNAc
# In short: as §1
# [18] = biological target: Neu5Gc(a2-3)Gal(b1-3)GlcNAc
# In short: as §1
# [19] = biological target: Neu5Gc(a2-3)Gal(b1-3)[Fuc(a1-4)]GlcNAc
# In short: as §1
# Neu5Gc(a2-3)Gal(b1-4)Glc = biological target: Neu5Gc(a2-3)Gal(b1-4)Glc
# In short: as §1
# [20] = biological target: Neu5Gc(a2-3)Gal(b1-4)GlcNAc
# In short: as §1
# [21] = biological target: Neu5Gc(a2-3)Gal(b1-4)GlcNAc(b1-3)Gal(b1-4)GlcNAc(b1-2)Man(a1-3)[Neu5Gc(a2-3)Gal(b1-4)GlcNAc(b1-3)Gal(b1-4)GlcNAc(b1-2)Man(a1-6)]Man(b1-4)GlcNAc(b1-4)GlcNAc
# In short: as §1
# [22] = biological target: Neu5Gc(a2-3)Gal(b1-4)[Fuc(a1-3)]GlcNAc
# In short: as §1
# [23] = biological target: Neu5Gc(a2-6)Gal(b1-4)GlcNAc
# In short: as §1
# Neu5Gc(a2-6)GalNAc = biological target: Neu5Gc(a2-6)GalNAc
# In short: as §1
# [24] = biological target: Neu5Gc(a2-8)Neu5Ac(a2-3)Gal(b1-4)GlcNAc
# In short: as §1
# [25] = biological target: Neu5Gc(a2-8)Neu5Gc(a2-3)Gal(b1-4)GlcNAc
# In short: as §1
# [26] = biological target: Neu5Gc(a2-8)Neu5Gc(a2-3)Gal(b1-4)GlcNAc(b1-3)Gal(b1-4)GlcNAc
# In short: as §1
# [27] = biological target: Neu5Gc(a2-8)Neu5Gc(a2-6)Gal(b1-4)GlcNAc
# In short: as §1
# [28] = biological target: Neu5Gc(b2-6)Gal(b1-4)GlcNAc
# In short: as §1
binder,measurement,setting,value
B1,glycan array binding signal (z-score),[1],-0.124
same,glycan array binding signal (z-score),Neu5Ac(a2-8)Neu5Ac,-0.089
same,glycan array binding signal (z-score),[2],0.409
same,glycan array binding signal (z-score),[3],-0.008
same,glycan array binding signal (z-score),[4],-0.689
same,glycan array binding signal (z-score),[5],-0.561
same,glycan array binding signal (z-score),[6],-0.512
same,glycan array binding signal (z-score),[7],-0.398
same,glycan array binding signal (z-score),[8],-0.084
same,glycan array binding signal (z-score),[9],0.317
same,glycan array binding signal (z-score),[10],0.62
same,glycan array binding signal (z-score),[11],-0.236
same,glycan array binding signal (z-score),[12],-0.02
same,glycan array binding signal (z-score),[13],-0.758
same,glycan array binding signal (z-score),[14],-0.461
same,glycan array binding signal (z-score),Neu5Ac(b2-6)GalNAc,-0.57
same,glycan array binding signal (z-score),[15],-0.388
same,glycan array binding signal (z-score),[16],-0.876
same,glycan array binding signal (z-score),[17],-0.728
same,glycan array binding signal (z-score),[18],-0.321
same,glycan array binding signal (z-score),[19],-0.17
same,glycan array binding signal (z-score),Neu5Gc(a2-3)Gal(b1-4)Glc,0.046
same,glycan array binding signal (z-score),[20],-0.19
same,glycan array binding signal (z-score),[21],0.137
same,glycan array binding signal (z-score),[22],-0.003
same,glycan array binding signal (z-score),[23],0.013
same,glycan array binding signal (z-score),Neu5Gc(a2-6)GalNAc,-1.15
same,glycan array binding signal (z-score),[24],-0.522
same,glycan array binding signal (z-score),[25],-0.62
same,glycan array binding signal (z-score),[26],-0.667
same,glycan array binding signal (z-score),[27],-0.457
same,glycan array binding signal (z-score),[28],0.361

# Laid out differently: entries from further up.
binder | measurement | setting | value
B1 | glycan array binding signal (z-score) | [12] | -0.02
same | glycan array binding signal (z-score) | [13] | -0.758
